{
  "source": "PubChem BioAssay AID1347075",
  "about": "(National Center for Advancing Translational Sciences (NCATS), 2019)",
  "note": "Where “and” joins values, the source holds several entries; their conditions need not be identical. Equal values may be shown once. Out of some 400,000 compounds screened, about 5,500 (1.4%) were called active. Inconclusive results, whose numbers are uncertain, are shown with a selection of clear calls. The call rests on the fitted dose curve; in most records, active means well fitted cell-killing curve with a large enough effect; inconclusive means small, poorly fitted or top-dose-only effect, or effect the other way; inactive means flat fitted curve, though single readings scatter. A potency beside an inconclusive call is a rough fit, not a confirmed value. Potency means the concentration at half of the fitted maximal effect.",
  "data": [
    {"experiment": "qHTS assay for MDR1-selective chemotherapeutics: Primary screen using the parental adenocarcinoma cell KB-3-1; further: nearly all actives have a fitted effect of over 60% in size", "details": "KB-3-1 viability, CellTiter-Glo ATP luminescence, 72 h; series mostly up to 46.1 µM", "outline": "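Using CellTiter-Glo luminescence, growth of non-resistant KB-3-1 adenocarcinoma cells is assessed 72 h after pin-tool compound addition at 37 °C. Normalized responses across the concentration series yield fitted curves.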", "values": [
      {"smiles": "O=C(NC(=S)Nc1ccccc1O)c1cncc(Br)c1", "Potency": "inconclusive: 23.1 µM [cytotoxic, partial curve, poor fit]"},
      {"smiles": "CNc1nc(Nc2ccc(Br)cc2)nc(N)c1[N+](=O)[O-]", "Potency": "active: 0.731 µM"},
      {"smiles": "CCCC[C@H]1COCCS(=O)(=O)N1Cc1ccc(C)cc1", "Potency": "active: 16.4 µM"},
      {"smiles": "Cc1cccc(C)c1NC(=O)CSc1cc(C(=O)c2nccn2C)c2ccccc2n1", "Potency": "inactive"},
      {"smiles": "Cc1ccc(C2=NOC(=O)/C2=C\\C=C\\c2ccccc2)cc1", "Potency": "inconclusive: 9.2 µM [cytotoxic, partial curve, poor fit]"},
      {"smiles": "CCCC[C@@H]1CNC(=O)C(=O)N1CC(C)(C)C", "Potency": "inconclusive: 18.4 µM [cytotoxic, single point]"},
      {"smiles": "O=C(c1ccc(Cl)cc1)C(CN1CCCC1)c1ccccc1", "note": "(stereo not given)", "Potency": "inconclusive: 29.1 µM [cytotoxic, single point]"},
      {"smiles": "COc1cc(CNCCNC(=O)c2nonc2N)ccc1OCc1ccc(Cl)cc1", "Potency": "inconclusive: 20.6 µM [cytotoxic, single point]"},
      {"smiles": "CN(Cc1cccc(F)c1)C(=O)CN1C(=O)NC2(CCc3ccccc32)C1=O", "note": "(stereo not given)", "Potency": "inactive"},
      {"smiles": "CN(C)c1cc[n+](Cc2c(Cl)cccc2Cl)cc1", "Potency": "active: 7.31 µM"},
      {"smiles": "COc1cccc(C(NC(=O)c2ccccc2F)NC(=O)c2ccccc2F)c1", "Potency": "inactive"},
      {"smiles": "O=C(c1ccccc1)C1OC1C(=O)c1ccccc1", "note": "(stereo not given)", "Potency": "inconclusive: 13 µM [cytotoxic, partial curve]"},
      {"smiles": "C=C(NC(=O)C(=C)NC(=O)c1csc(C2=NC3c4csc(n4)C4NC(=O)c5csc(n5)C(C(C)(O)C(C)O)NC(=O)C5CSC(=N5)/C(=C/C)NC(=O)C(C(C)O)NC(=O)c5csc(n5)C3(CC2)NC(=O)C(C)NC(=O)C(=C)NC(=O)C(=C)NC(=O)C(C(C)C)NC2C=Cc3c(C(C)O)cc(nc3C2O)C(=O)OC4C)n1)C(N)=O", "note": "(stereo not given)", "Potency": "inconclusive: 14.6 µM [rising, partial curve]"},
      {"smiles": "Cc1nnc(C)c2c(C)n(Cc3ccc4c(c3)OCO4)c(C)c12", "Potency": "inconclusive: 20.6 µM [cytotoxic, single point]"},
      {"smiles": "COc1ccc(-c2cnc3c(NC=O)cc(-c4cccc(NS(C)(=O)=O)c4)cn23)cc1OC", "Potency": "inconclusive: 25.9 µM [cytotoxic, single point]"},
      {"smiles": "CCC(OC(=O)C1=Cc2ccccc2OC1)C(=O)NCc1ccco1", "note": "(stereo not given)", "Potency": "inactive"},
      {"smiles": "CCOC(=O)C1=C(COC(=O)/C=C/c2ccccc2)NC(=O)NC1C", "note": "(stereo not given)", "Potency": "inconclusive: 29.1 µM [rising, single point]"},
      {"smiles": "CC(=O)Nc1ccc(Nc2nc(-c3sc(NC(C)=O)nc3C)cs2)cc1", "Potency": "inconclusive: 13 µM [cytotoxic, partial curve, poor fit]"},
      {"smiles": "O=C(Nc1ccc(O)cc1C(=O)O)c1ccc2c(c1)C(=O)N(Cc1ccco1)C2=O", "Potency": "inconclusive: 14.6 µM [rising, partial curve]"},
      {"smiles": "CC(=O)N1C(c2ccccc2O)C[C@]2(C)CC(=O)NC12", "note": "(stereo not given in full)", "Potency": "inconclusive: 3.26 µM [cytotoxic, partial curve, poor fit]"},
      {"smiles": "CCOc1ccccc1CN1C(=O)c2ccccc2C1C(=O)NC1CCCCCC1", "note": "(stereo not given)", "Potency": "inconclusive: 3.26 µM [cytotoxic, partial curve, poor fit]"},
      {"smiles": "CC(C)(C)c1cc2cccnc2n1Cc1cccc(F)c1", "Potency": "inconclusive: 20.6 µM [cytotoxic, single point]"},
      {"smiles": "COc1ccc(OCCn2cc(C(=O)c3ccco3)c3ccccc32)cc1", "Potency": "inactive"},
      {"smiles": "COc1cc(/C=C/c2nc3ccccc3c(=O)[nH]2)ccc1OC(F)F", "Potency": "inactive"},
      {"smiles": "Cc1onc(-c2ccccc2)c1CNC(=O)Nc1ccccc1", "Potency": "inactive"},
      {"smiles": "O=C(CN1CCN(S(=O)(=O)c2ccc(Br)cc2)CC1)N/N=C/c1cccnc1", "Potency": "inactive"},
      {"smiles": "O=C(CSCc1ccco1)N1CCc2ccccc21", "Potency": "inconclusive: 0.0103 µM [rising, full curve, poor fit]"},
      {"smiles": "O=C(/C=C/c1cccs1)Nc1ccc(Br)cn1", "Potency": "active: 1.3 µM"},
      {"smiles": "Cc1ccc(NCC(=O)N=Nc2c(O)[nH]c3ccc([N+](=O)[O-])cc23)cc1", "Potency": "inconclusive: 25.9 µM [cytotoxic, single point]"},
      {"smiles": "Cc1[nH]c2ccc(C(=O)OC(C)C(=O)NCc3ccccc3)cc2c1C", "note": "(stereo not given)", "Potency": "active: 16.4 µM"},
      {"smiles": "CC(=O)c1ccccc1NS(=O)(=O)c1c(C)nn(-c2ccccc2)c1C", "Potency": "inactive"},
      {"smiles": "CN1CCN(c2ccc(NC(=S)NC(=O)c3cccc4ccccc34)cc2)CC1", "Potency": "inactive"},
      {"smiles": "O=C(NCCc1ccc2c(c1)OCCO2)c1cc(F)cc(F)c1", "Potency": "inconclusive: 29.1 µM [cytotoxic, single point]"},
      {"smiles": "CC1CCN(C(C)C(=O)Nc2cc(S(=O)(=O)N3CCCCC3)ccc2Cl)CC1", "note": "(stereo not given)", "Potency": "inconclusive: 18.4 µM [cytotoxic, single point]"},
      {"smiles": "CC(=O)Nc1nc2ccccc2n1Cc1ccc(C)cc1", "Potency": "inconclusive: 20.6 µM [cytotoxic, single point]"},
      {"smiles": "Cc1cc(C)cc(NC(=O)C(c2ccccc2)N2CCCC2)c1", "note": "(stereo not given)", "Potency": "inconclusive: 23.1 µM [cytotoxic, single point]"},
      {"smiles": "COC(=O)c1ccc(NC(=O)CCn2cccn2)cc1", "Potency": "inactive"},
      {"smiles": "O=C(Nc1ccc(S(=O)(=O)NC2=NCCCCC2)cc1)c1ccc(C(F)(F)F)cc1", "Potency": "active: 20.6 µM"},
      {"smiles": "CNC(=O)c1c[nH]c2ccc(S(=O)(=O)Nc3ccccc3F)cc2c1=O", "Potency": "inactive"},
      {"smiles": "CCOc1ccc(NC(=O)N(Cc2ccc(CC)cc2)Cc2cn[nH]c2-c2ccc(OC)cc2)cc1", "Potency": "inconclusive: 29.1 µM [cytotoxic, single point]"},
      {"smiles": "Cc1cc(NC(=O)CSc2nc3c(sc4ccccc43)c(=O)n2CCCN2CCOCC2)n[nH]1", "Potency": "active: 13 µM"},
      {"smiles": "CCOC(=O)c1cc(-c2ccccc2)n(CCC(=O)N2CCN(c3ccccn3)CC2)c1C", "Potency": "inconclusive: 20.6 µM [cytotoxic, partial curve, poor fit]"},
      {"smiles": "O=C(Cc1ncc(C(F)(F)F)cc1Cl)NNc1cccc(F)n1", "Potency": "inactive"},
      {"smiles": "Fc1cccc(/C=N/Nc2ncnc3nc[nH]c23)c1", "Potency": "inconclusive: 29.1 µM [cytotoxic, single point]"},
      {"smiles": "COc1ccc(CCNCc2c(-c3ccccc3)n(C)c3ccccc23)cc1", "Potency": "inconclusive: 16.4 µM [cytotoxic, single point]"},
      {"smiles": "CCCCCn1c(NCc2ccco2)nc2ccccc21", "Potency": "inactive"},
      {"smiles": "O=S1(=O)CC(N2CCN(c3ncccn3)CC2)CN1Cc1ccc(F)cc1", "note": "(stereo not given)", "Potency": "inactive"},
      {"smiles": "O=C(/C=C1\\C(=O)Nc2ccccc21)/C=C1\\C(=O)Nc2ccccc21", "Potency": "inconclusive: 16.4 µM [cytotoxic, single point]"},
      {"smiles": "NC(=O)CSc1ccc(F)cc1", "Potency": "inactive"},
      {"smiles": "CC[C@]12c3[nH]c4ccc(Cl)cc4c3CCN1C(=O)[C@@H](CC(=O)NC/C=C(\\C)CCC=C(C)C)C[C@@H]2C(=O)N1CCN(C(=O)C2CC2)CC1", "Potency": "inconclusive: 29.1 µM [cytotoxic, single point]"},
      {"smiles": "COc1ccc(Cl)cc1NC(=O)CN1c2ccccc2CC1C", "note": "(stereo not given)", "Potency": "inconclusive: 18.4 µM [cytotoxic, single point]"},
      {"smiles": "CCOC(=O)[C@]12CCC=C1N(Cc1ccc(Cl)cc1Cl)C(=O)[C@H](CC(=O)NCc1ccc(C)o1)C2", "Potency": "inconclusive: 23.1 µM [cytotoxic, single point]"},
      {"smiles": "COc1cc2[nH]c(=S)nc(NCCc3ccc(S(N)(=O)=O)cc3)c2cc1OC", "Potency": "inactive"},
      {"smiles": "Oc1cccc(C=NNc2ccccn2)c1", "Potency": "inactive"},
      {"smiles": "Cc1c(Cc2ccccc2)sc(NC(=O)c2ccco2)c1C(N)=O", "Potency": "inactive"},
      {"smiles": "Cc1ccccc1-n1cnc2cc(NCc3cccs3)ccc21", "Potency": "inconclusive: 29.1 µM [cytotoxic, single point]"},
      {"smiles": "O=C(NCc1ccc(Cl)cc1)C(=O)NCC(c1cccnc1)N1CCN(c2ccc(F)cc2)CC1", "note": "(stereo not given)", "Potency": "inconclusive: 25.9 µM [cytotoxic, single point]"},
      {"smiles": "Cc1ccccc1-n1c(SCC(=O)c2cc(C)n(C)c2C)nnc1-c1ccncc1", "Potency": "inactive"},
      {"smiles": "COc1cccc(C(=O)Cn2c(=N)n(C)c3ccccc32)c1", "Potency": "active: 10.3 µM"},
      {"smiles": "CCCCCCSc1cccc(-c2nc3ccccn3c2NCc2ccccc2)c1", "Potency": "inconclusive: 29.1 µM [cytotoxic, single point] and inconclusive: 16.4 µM [cytotoxic, partial curve, poor fit]"},
      {"smiles": "CCOC(=O)CCCCC(=O)c1[nH]c(=O)[nH]c1CSCCO", "Potency": "inactive"},
      {"smiles": "COc1ccc(-c2ccc3c(c2)S(=O)(=O)c2cccc(C(=O)NC4CCCC4)c2C3=O)cc1OC", "Potency": "inactive"},
      {"smiles": "CCN1CCN(Cc2ccc(NC(=O)c3cc(NC(=O)c4cc(C)on4)cc(OC)c3)cc2C(F)(F)F)CC1", "Potency": "inconclusive: 25.9 µM [cytotoxic, single point] and inconclusive: 16.4 µM [cytotoxic, single point]"},
      {"smiles": "COc1ccc(N(CC(=O)Nc2ccc(F)c(Cl)c2)S(=O)(=O)c2c(C)noc2C)cc1", "Potency": "inconclusive: 25.9 µM [cytotoxic, single point]"},
      {"smiles": "C=CCOc1ccccc1CN(C(=O)CCl)c1ccc2c(c1)OCO2", "Potency": "inconclusive: 13 µM [cytotoxic, partial curve, poor fit]"},
      {"smiles": "COc1ccc(OCC(=O)N/N=C/c2cccn2-c2cccc(C(=O)O)c2)cc1", "Potency": "inactive"},
      {"smiles": "O=[N+]([O-])c1ccc(O)c(/C=N/Nc2ccccn2)c1", "Potency": "inconclusive: 20.6 µM [cytotoxic, partial curve, poor fit]"},
      {"smiles": "O=C(Nc1cccc(Br)c1)c1ccn[nH]1", "Potency": "active: 11.2 µM"},
      {"smiles": "O=C(CSc1nc(=O)n2cc(Cl)ccc2n1)Nc1cccc2ccccc12", "Potency": "inconclusive: 25.9 µM [cytotoxic, single point]"},
      {"smiles": "Cn1c(CCNC(=O)c2ccccc2)nc2cc(NC(=O)c3ccco3)ccc21", "Potency": "inconclusive: 7.31 µM [rising, partial curve]"}
    ]}
  ]
}
